Source: publication PMC8260879
These are yes or no findings as the source states them, for the method shown. Some results given as binding are weak or reduced against the parent protein; the word gives no strength.

Chains of the proteins cited; added tags and fusions are not shown. Lines headed by an entry give the natural chain unless they say otherwise; changes in a name come on top. A line that says so, or that is headed by a name, gives the form on record, which may keep a tag or linker.
EphA2 L913F mutant tagged with mTURQ or EYFP (P29317-1, form named): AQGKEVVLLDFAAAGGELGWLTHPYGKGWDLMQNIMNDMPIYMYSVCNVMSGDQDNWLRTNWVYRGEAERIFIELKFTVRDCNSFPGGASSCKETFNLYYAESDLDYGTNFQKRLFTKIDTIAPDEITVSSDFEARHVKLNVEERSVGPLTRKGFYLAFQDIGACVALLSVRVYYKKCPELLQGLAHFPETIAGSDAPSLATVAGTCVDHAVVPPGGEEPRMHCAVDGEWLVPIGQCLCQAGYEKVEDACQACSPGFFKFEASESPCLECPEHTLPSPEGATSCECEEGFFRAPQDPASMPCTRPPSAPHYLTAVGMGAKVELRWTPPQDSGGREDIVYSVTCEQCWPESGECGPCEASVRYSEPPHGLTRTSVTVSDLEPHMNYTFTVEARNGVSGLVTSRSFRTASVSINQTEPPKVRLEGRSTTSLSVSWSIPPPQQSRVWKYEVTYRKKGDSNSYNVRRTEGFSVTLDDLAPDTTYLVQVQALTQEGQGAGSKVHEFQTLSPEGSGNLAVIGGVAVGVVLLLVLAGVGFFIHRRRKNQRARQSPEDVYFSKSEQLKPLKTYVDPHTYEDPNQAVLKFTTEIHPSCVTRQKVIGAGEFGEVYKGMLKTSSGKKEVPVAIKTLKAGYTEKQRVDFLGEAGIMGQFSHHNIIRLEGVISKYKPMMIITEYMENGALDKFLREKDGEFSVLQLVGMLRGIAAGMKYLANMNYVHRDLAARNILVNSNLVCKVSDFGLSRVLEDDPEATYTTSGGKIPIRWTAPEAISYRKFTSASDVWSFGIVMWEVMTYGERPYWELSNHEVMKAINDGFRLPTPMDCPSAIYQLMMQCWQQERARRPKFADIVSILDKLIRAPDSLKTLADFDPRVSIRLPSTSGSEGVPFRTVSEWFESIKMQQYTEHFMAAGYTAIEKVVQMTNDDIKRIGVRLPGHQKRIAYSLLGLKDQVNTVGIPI

Target: EphA2 L913F mutant tagged with mTURQ or EYFP (human) (UniProt P29317)
Assay: fluorescence intensity fluctuation (FIF) analysis; molecular brightness in regions of the basolateral membrane of transfected HEK293 cells, no ligand, data over the whole range of receptor concentrations

binding: binds
Substance: EphA2 L913F mutant tagged with mTURQ or EYFP (from UniProt P29317-1 24-976) (receptor)
